# From patent publication US9993480B2, “mTOR/JAK inhibitor combination therapy” (NOVARTIS PHARMA AG, priority 2011, dated 2018)
# At least one compound was matched to its structure with a doubt left.
# Experiments:
# SET2 cells = assay: Apoptosis by Annexin V flow cytometry; assay type: cell-based, human; settings: SET2 cells exposed for 48 h
# Description: Results are expressed ad percent viable cells compared to control wells containing vehicle (DMSO) only. The fraction of necrotic cells was identified as the double-positive Annexin V/propidium iodide cells.
# [1] = test system: JAK2, STAT5, and 4EBP1 in SET2 cells; assay: Western blot of mTOR and JAK/STAT signaling; assay type: cell-based, human; settings: 24 h, increasing concentrations
# Experimental: Cells were resuspended in RIPA lysis buffer (50 mM pH 7.4 Tris-HCl, 150 mM NaCl, 1% NP-40, 1 mMEDTA) containing a proteinase inhibitor cocktail (Halt Protease Inhibitor Cocktail Kit, PIERCE, Rockford, Ill., US) and subjected to sodium dodecyl sulphate polyacrylamide gel electrophoresis separation and western blotting onto Immunoblot PVDF membrane (BioRad, Hercules, Calif., US), according to standard protocols.
# SET2 cells were incubated for 24 h with increasing concentrations of the drugs, and the level of total and phosphorylated JAK2, STAT5, and 4EBP1 was analyzed by western blot. Tubulin was used for loading normalization.
smiles,measurement,setting,value
Cc1[nH]c2ccccc2c1CCNCc1ccc(/C=C/C(=O)NO)cc1 [Panobinostat],cell apoptosis (Annexin V-positive cells),SET2 cells,dose-dependently potent inducers of cell apoptosis
same,cell apoptosis (Annexin V-positive cells),SET2 cells; listed as panobinostat,potently induced cell apoptosis
same,phosphorylated JAK2,[1],dose-dependently reduced
same,phosphorylation of 4E-BP1,[1],modest effect
same,phosphorylation of STAT5,[1],dose-dependently reduced
same,total JAK2,[1],dose-dependently reduced
